Experimental data reported in patent publication US9779901B2, “High temperature material compositions for high temperature thermal cutoff devices” (Therm-O-Disc, Incorporated, priority 2008, dated 2017).

Experiment: Continuous exposure of C5 epoxy sealed TCO devices to 247° C. (pellet retention, pellet height, resistance)
Conditions: for retention of the thermal pellet compound by the C5 epoxy seal: pellet in sealed TCO housing; for initial pellet height: before exposure to 247° C.; for time until resistance greater than 200 kOhm (actuation): 9 out of 10 HTTCO samples for triptycene
[1] = continuous exposure to 247° C., C5 seal

SMILES	retention of the thermal pellet compound by the C5 epoxy seal (continuous exposure to 247° C.)	initial pellet height	pellet height at Day 1 (continuous exposure to 247° C., C5 seal, Day 1)	time until resistance greater than 200 kOhm (actuation) [1]	pellet height retained (continuous exposure to 247° C., C5 seal, for at least 13 weeks)
Nc1cccc2c1C(=O)c1ccccc1C2=O [1-aminoanthraquinone]	even greater retention				
OCC(CO)(CO)CO [pentaerythritol, 2,2-Bis(hydroxymethyl)-1,3-propanediol, reference compound]	not retained	101 thousandths of an inch	0.00 thousandths of an inch	almost immediately	
c1ccc2c(c1)C1c3ccccc3C2c2ccccc21 [triptycene, 9,10-dihydro-9,10-o-benzeno-9,10-dihydroanthracene]	retained	about 98 thousandths of an inch		over 2,100 hours	at least 80 thousandths of an inch
